According to PubChem BioAssay AID1347423 (Functional Genomics Laboratory (NCATS/FGL), 2020):
Hit rate of the full screen: of about 52,000 sequences, about 210 (0.4%) were called active.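 The calls were made as follows: active = gene whose silencing raises cell survival under the drug, median off-target-corrected z-score across its silencing RNAs 2 or more; inactive = the rest.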 The list shows a part of the results.

assay: Resistance to Poly (ADP-Ribose) Polymerase inhibitor: Gene Identification via Genome-wide siRNA Screen; conditions: mouse BRCA2 R2336H ES cells, olaparib, CellTiter-Glo viability; hits give high values
Summary of the method: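 Mouse BRCA2 R2336H ES cells were reverse-transfected with siRNA (20 nM final), treated at 48 h with 500 nM olaparib, and read by CellTiter-Glo after 72 h. Scores: MAD-based z per siRNA, median per gene, seed off-target correction.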

| Sequence | z-score |
| --- | --- |
| GGCCUACGAGAGGCAAAAATT against Tcf1 | inactive: -0.541 |
| CGAGGUCUCAAUUACAUUATT against Pcolce2 | inactive: 1.39 |
| UAUCCACAGUAUGGUGGCUTT against Tas2r137 | inactive: 0.767 |
| GGAAUUCAUACCCUUGUUGTT against B3gnt5 | inactive: -0.731 |
| GCACCUUAAAAAUGAAGAUTT against D12Ertd551e | inactive: -0.616 |
| GGGAGAAGAUGUCAACCGGTT against Mtpn | inactive: 0.444 |
| CGAAGCAUUAGAUUUUGACTT against BC062185 | inactive: 0.863 |
| GCGAUCACUUUUCAAGUUUTT against Rnf139 | inactive: -0.00625 |
| GGUCAUGUUUCUCUCCCAATT against 2810471M23Rik | inactive: -1.43 |
| GGUCAGAUUAACAAAUUCGTT against Proz | inactive: 0.453 |
| GGUGACUAACGAGAUCAUUTT against Slc19a1 | inactive: -2.21 |
| GCUCCUCGGUCUUUCAUGUTT against 5330401P04Rik | inactive: -2.47 |
| GGACGAAGGUUUCUUUGAGTT against Samd8 | inactive: 0.578 |
| GGUGCUCAACAAGUGGACUTT against Htr1a | inactive: -0.928 |
| GGCACAUUAGUAGAACACATT against Sorcs2 | inactive: -0.299 |
| GGCAAAAUGACACGGACACTT against Gm253 | inactive: -1.52 |
| CCUUUUUGAUCGUUAUGAUTT against Dnajc11 | inactive: 1.43 |
| GGAUUGAGUCCUAUGAAGGTT against Stard3nl | inactive: 0.128 |
| GCUGCCUACCUGUGAAAGUTT against Pgam2 | inactive: -0.179 |
| GGUCUCACAGCAGUACUCATT against Clk4 | inactive: 0.89 |
| CCAUCACCAGUCGAGAUGCTT against H13 | inactive: 0.487 |
| GCCGUACCAUGUAAUGCCATT against 1200013P24Rik | inactive: 0.73 |
| GGUGUCUGAGUAAUUCUGGTT against Zfp371 | inactive: 0.498 |

| Sequence | z-score |
| --- | --- |
| GGUAACAGUUCAACAGUAUTT against Olfr1039 | inactive: -1.26 |
| GGAGUACAGUGUGAGCAGATT against Dok4 | inactive: -1.13 |
| CGCGUAUCUGACCAGGUCATT against 2410011O22Rik | inactive: 0.00225 |
| GGCUCUGUAGCUAGCAAUATT against C77080 | inactive: 1.59 |
| UCGAAGAUUGGUCUAAAUUTT against 1700055M20Rik | inactive: 0.556 |
| GCAGCUUAAGUUGCCCAAGTT against Aatk | inactive: -2.24 |
| GGCUGAGGAUAUGAUGUUATT against Zic3 | inactive: -1.44 |
| UGGCUGAUAUGAAGGUCUGTT against LOC432602 | inactive: 0.158 |
| GGCUGAAAGCCCAGAUCUUTT against 4930565A21Rik | inactive: -2.19 |
| CCUUAUAGUCCAGUAUUUUTT against 6030443O07Rik | inactive: 0.625 |
| GGAAAGUCAGGAUGAAUAUTT against Cst9 | inactive: -1.89 |
| GGCUUCAAGCAAGUAAAGGTT against Cars | inactive: -0.872 |
| GGGCUAGAGGAAAACGAAATT against Crot | inactive: -0.453 |
| AUGAUUCACAGUGCAGUGATT against Imap38 | inactive: -0.34 |
| GACCCAGGCUCUGCUCUUUTT against Olfr1413 | inactive: 1.28 |
| GGAAAAAUGGCAACUUCAATT against Dock3 | inactive: 0.215 |
| GGGAUUGGGACUGUUUUUGTT against Atp5g2 | inactive: -0.641 |
| GGUGGACAAGACUAAAACATT against Podxl | inactive: 0.378 |
| GCCAAUAAGAACAACGAUGTT against Des | inactive: -0.111 |
| GGUGUCCAGAUUUACCUGUTT against Olfr429 | inactive: 0.127 |
| CAAUAAUGAAUCCACGGUATT against Olfr728 | inactive: -0.876 |
| GCUGAAAUCUCCAAAUACCTT against Arl8 | inactive: -0.727 |
| GGCUGUUUAGAUGUAAUGUTT against Nek1 | inactive: -0.348 |

Another view of part of the listing above.
Sequence | z-score
UCGAAGAUUGGUCUAAAUUTT against 1700055M20Rik | inactive: 0.556
GGCUGAGGAUAUGAUGUUATT against Zic3 | inactive: -1.44
GGCUUCAAGCAAGUAAAGGTT against Cars | inactive: -0.872
GGGCUAGAGGAAAACGAAATT against Crot | inactive: -0.453

Further entries.

| Sequence | z-score |
| --- | --- |
| GCACAUCUCAGCCUGAAUCTT against Cln6 | inactive: -0.164 |
| GGACCAUGGAUAUUUAAAGTT against Mafk | inactive: 0.606 |
| CCGAAGUUCACCCUAAAGGTT against Lmna | inactive: 0.053 |
| CCUGAAAGAUCCAGAAGUATT against Dppa5 | inactive: 0.602 |
| GGUCCAGCUAUAAAGACAATT against Gm405 | inactive: -0.321 |
| GCCUUGUAGACCAGUUCUATT against 9530085L02Rik | inactive: -1.46 |
| GGAUAACAGAUGGUUAAUATT against D5Ertd577e | inactive: 0.00935 |
| GGCUGCCAAGAAAAUCUAUTT against Rab14 | inactive: 0.0881 |
| GCCUUACAACAAGCAACACTT against 2210008M09Rik | inactive: 0.683 |
| GGUGUGUGAUAAAUCUUUUTT against Zfp53 | inactive: 0.686 |
| GGCCCUGCCAGGUUUUUAGTT against Rpel1 | inactive: 0.301 |
| AGAGUGGUAAAACUGAUUATT against Tas2r129 | inactive: -0.146 |
| GGUGAACAUUAACAACAGUTT against Ngfb | inactive: 0.53 |
| GGGCAAUGAUAUUGUUGUGTT against Ilk | inactive: -1.71 |
| GGAGCCUGACAUCAUUAUCTT against Mmp25 | inactive: -0.573 |
| GGAUCUAGAGAUUGAAAAUTT against Uaca | inactive: -0.993 |
| GGGCUGUGAUAUGCAACUCTT against AJ554213 | inactive: -1.15 |
| GGGUUGUUUGCUGGUUUGUTT against 0610007H07Rik | inactive: -1.99 |
| GGACCUGAAACACGCCAAUTT against Pctk3 | inactive: -0.013 |
| GGCCUUUUGGCUUUGAUCUTT against Hoxb1 | inactive: 0.514 |
| GGAUGUACUUUGUUAAGGCTT against Tert | inactive: 0.341 |
